This is an account of results in patent US20160200815A1.

No constants are given. Whether binding was seen depends on the method and setting. Some results given as binding are weak or reduced against the parent protein; the word gives no strength.

This experiment deals with hTIM3-Fc WT (human). The experiment is described as follows: ELISA on hTIM3-Fc loop-swap constructs. For orientation: ELISA stands for enzyme-linked immunosorbent assay.

B1: mAb58 (antibody, V domains shown)
VH: QIQLVQSGPELKKPGETVKISCKASGYTFTTYGMSWVKQAPGKGLKLMGWINTYSGAPTYADDFKGRFAFSLETSASAAYLQINNLKNEDTATYFCARKPPHYYVNSFDYWGQGTTLTVSS
VL: DIVMTQSPATLSVTPGDRVSLSCRASQSISDYLHWYQQKSHESPRLLIKYASQSISGIPSRFSGSGSGSDFTLSINSVEPEDVGVYYCQNGHSFPYTFGGGTKLEIK
As for B1, the binding result is “binds”.
